Experimental data as given in PubChem BioAssay AID1347075 (National Center for Advancing Translational Sciences (NCATS), 2019).
Hit rate of the full screen: of about 400,000 compounds, about 5,500 (1.4%) were called active. The inconclusive results got no clear call from the source; some entries with a clear call stand among them for comparison. Calls come from the whole dose curve; as a rule, active = well fitted cell-killing curve with a large enough effect; inconclusive = small, poorly fitted or top-dose-only effect, or effect the other way; inactive = flat fitted curve, though single readings scatter. A potency beside an inconclusive call is a rough fit, not a confirmed value.
% is set by controls: 0 for no effect and ±100 for the full control effect; potency is the fitted concentration of half-maximal effect.

Assay: qHTS assay for MDR1-selective chemotherapeutics: Primary screen using the parental adenocarcinoma cell KB-3-1; note: nearly all actives have a fitted effect of over 60% in size
Conditions: KB-3-1 viability, CellTiter-Glo ATP luminescence, 72 h; activity change, negative = cytotoxic: at 46.1 µM (top of the series)
In short: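 Luminescent ATP read-out (CellTiter-Glo) measures survival of drug-naive KB-3-1 cells after 72 h compound exposure at 37 °C. Titration series was screened from lowest to highest concentration, with DMSO vehicle plates as background controls.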
In the case of Cc1ccc(OCCCSc2nc(-c3ccc(C(C)(C)C)cc3)nc3cc(=O)[nH]n23)cc1C, the “activity change, negative = cytotoxic” value is reported as inactive: 4.94%. With COC(=O)c1sc(S(=O)(=O)N2CCCCC2C)c(C(=O)OC)c1C (centres undefined) the “activity change, negative = cytotoxic” value was inactive: -0.317%. In the case of COc1cc(/C=C/CN2CCC(C(=O)NC(c3ccc(F)cc3)c3ccc4ccccc4n3)CC2)ccc1OC(C)=O (centres undefined), the Potency is reported as inconclusive: 29.1 µM [cytotoxic, single point]. For O=[N+]([O-])c1ccc(CNCc2cc(Cl)ccc2O)cc1, the Potency was inconclusive: 29.1 µM [cytotoxic, single point]. With CC1(CCc2ccccc2)NC(=O)N(CC(=O)Nc2ccc(OC(F)F)cc2)C1=O (centres undefined) the “activity change, negative = cytotoxic” value was inactive: -8.19%. In the case of Cc1cc(C(=O)N2CCN(c3cccc(Cl)c3)CC2)c(C)o1, the Potency is reported as active: 23.1 µM. In the case of CC1Cc2cc(S(=O)(=O)NCc3ccc(N(C)C)cc3)ccc2N1C(=O)C1CCC1 (centres undefined), the Potency is reported as inconclusive: 29.1 µM [cytotoxic, single point]. With Cn1c(NC(=O)Cc2ccc(F)cc2)cc(=O)n(C)c1=O the Potency was inconclusive: 11.6 µM [rising, partial curve, poor fit]. With COC(=O)c1c(NC(=O)c2nc3ccccc3s2)sc2c1CC(C)(C)NC2(C)C the Potency was inconclusive: 23.1 µM [cytotoxic, single point]. With C/C(=N\NC(=O)Cc1ccc(Cl)cc1)c1ccccc1O the Potency was inconclusive: 18.4 µM [cytotoxic, partial curve, poor fit]. In the case of CCOC(=O)N1CCc2c(sc3c2C(=O)NC(c2ccccc2F)N3)C1 (centres undefined), the Potency is reported as inconclusive: 32.6 µM [cytotoxic, single point]. In the case of Cc1ccc(Nc2nc3c(s2)CCC3)c(C)c1, the “activity change, negative = cytotoxic” value is reported as inactive: 5.71%. For c1ccc2c(c1)OCCOCCOCCOCCOc1ccccc1OCCOCCOCCO2, the Potency was active: 25.9 µM. For NCC(c1ccc(Cl)cc1Cl)c1c[nH]c2ccccc12 (centres undefined), the Potency was inconclusive: 14.6 µM [cytotoxic, partial curve, poor fit]. With Cn1c(CN2CCN(CCO)CC2)c(C#N)c2ccccc21 the Potency was inconclusive: 5.17 µM [rising, full curve]. For Cc1ccc(Cl)cc1NC(=S)N/N=C/c1cccc2ccccc12, the Potency was active: 5.8 µM. For Cc1ccc(C)n1/N=C1/NC(=O)CS1, the “activity change, negative = cytotoxic” value was inactive: 10.6%. For C#CC[N+](C)(C)CCCCCCCC, the Potency was active: 5.17 µM. In the case of O=C1C(c2ccnc3ccccc23)=C(O)c2ccccc21, the Potency is reported as inconclusive: 11.6 µM [cytotoxic, partial curve]. In the case of COc1cccc(/C=N/NC(=O)c2cc3cc([N+](=O)[O-])ccc3s2)c1O, the Potency is reported as inconclusive: 4.61 µM [cytotoxic, full curve]. In the case of Cc1ccc(N(CC(O)CN2CCCCC2)S(=O)(=O)c2ccccc2)cc1 (centres undefined), the “activity change, negative = cytotoxic” value is reported as inactive: 21.7%. In the case of COc1cc(C(=O)NCC(c2ccco2)N2CCc3ccccc3C2)cc(OC)c1OC (centres undefined), the “activity change, negative = cytotoxic” value is reported as inactive: 0.531%. With Cn1c(=O)c2cc(NC(=O)NCc3ccc(F)cc3)ccc2n1C/C=C/c1ccccc1 the Potency was inconclusive: 25.9 µM [cytotoxic, single point]. With COc1ccc(/C=N/NC(=O)c2ccc[nH]2)cc1 the “activity change, negative = cytotoxic” value was inactive: 2.46%. In the case of Cc1ccc(CCNC(=O)c2ccc3c(=O)n(-c4ccccc4)c(=O)[nH]c3c2)cc1, the “activity change, negative = cytotoxic” value is reported as inactive: 1.47%. For O=S(=O)(Nc1nc2ccccc2nc1N1CCN(c2ccccc2)CC1)c1ccc(F)cc1, the Potency was inconclusive: 13 µM [cytotoxic, partial curve, poor fit]. For COc1ccc(CCNC(=O)c2cccc(C(=O)NCCc3ccc(OC)cc3)n2)cc1, the “activity change, negative = cytotoxic” value was inactive: 0.225%. With CCOc1ccc2[nH]c(=O)c(CN(Cc3cccs3)C(CC)c3nnnn3C(C)(C)CC)cc2c1 (centres undefined) the Potency was inconclusive: 25.9 µM [cytotoxic, single point]. For COc1ccc(Oc2c(Cl)cnn(-c3ccccc3)c2=O)cc1, the Potency was inconclusive: 29.1 µM [cytotoxic, single point]. For CCC(C)NC(=O)CN1C(=O)COc2ccc(S(=O)(=O)N3CCOCC3)cc21 (centres undefined), the Potency was inconclusive: 8.2 µM [cytotoxic, partial curve, poor fit]. For CCOc1ccc2nc(N/C(N)=N/S(C)(=O)=O)nc(C)c2c1, the Potency was inconclusive: 0.082 µM [rising, full curve]. With CC(C)NC(=O)c1ccc(COc2ccc(C(C)(C)C)cc2)o1 the Potency was inconclusive: 20.6 µM [cytotoxic, partial curve, poor fit]. With CCc1ccc(OCC(=O)OCC(=O)NC2CCCC(C)C2C)cc1 (centres undefined) the Potency was inconclusive: 29.1 µM [rising, single point]. For O=[N+]([O-])c1cccc(-c2ccc(/C=N/Nc3nc(N4CCCCC4)nc(N4CCCCC4)n3)o2)c1, the Potency was inconclusive: 20.6 µM [cytotoxic, single point]. In the case of COc1cc2c(cc1OC)CN(C(=O)C1CCCN(C(=O)c3ccc(Cl)cc3)C1)CC2 (centres undefined), the activity change, negative = cytotoxic is reported as inconclusive: -6.09%. In the case of O=C1C(F)=CC(COC(c2ccccc2)(c2ccccc2)c2ccccc2)OC1n1cc(F)c(=O)[nH]c1=O (centres undefined), the Potency is reported as inconclusive: 5.17 µM [cytotoxic, full curve, poor fit]. For Cc1nc2cc(-c3ccccc3)sc2c(=O)n1N, the Potency was active: 3.66 µM. With O=Cc1ccccc1OCc1ccc2c(c1)OCO2 the Potency was inconclusive: 20.6 µM [cytotoxic, single point]. In the case of Cc1nc2scc(C)n2c(=O)c1S(=O)(=O)Nc1cccc(C(F)(F)F)c1, the “activity change, negative = cytotoxic” value is reported as inactive: -18%. In the case of Cc1nonc1OC(C)CNc1ccc([N+](=O)[O-])cc1 (centres undefined), the Potency is reported as inconclusive: 7.31 µM [cytotoxic, partial curve, poor fit]. With CCc1ccc(-c2cc(C)no2)cc1S(=O)(=O)N1CCN(c2ccccc2F)CC1 the Potency was inconclusive: 23.1 µM [cytotoxic, single point]. With O=S(=O)(c1cccc(C(F)(F)F)c1)N1CCC(c2cc(-c3cccc4ccccc34)n[nH]2)CC1 the Potency was inconclusive: 29.1 µM [cytotoxic, single point]. For CC12CCC(C(=O)Nc3nc4ccc(Br)cc4s3)(OC1=O)C2(C)C (centres undefined), the Potency was inconclusive: 20.6 µM [cytotoxic, single point]. For COc1ccc(CN2CCNC(=O)C2CC(=O)NC2CCCC2)c(C)c1C (centres undefined), the Potency was inconclusive: 0.0092 µM [cytotoxic, full curve, poor fit].
